A short description of this data set: Adhesive force: overlapping pieces of muscle tissue glued with the polyurea system, tested by pulling. The arrangement: key: ++: very good; +: good. Here is the method: The time after which the polyurea system was no longer tacky (tack-free time) was measured by means of adhesion experiments using a glass rod. For this, the glass rod was brought into contact with the layer made of the polyurea system. If it no longer stayed stuck, the system was considered to be tack-free. Additionally, the adhesive force was determined by coating two pieces of muscle tissue (1=4 cm, h=0.3 cm, w=1 cm) at the ends 1 cm wide using the polyurea system and sticking them together so that they overlap. The adhesive force of the polyurea system was tested in each case by pulling.

Where [1] appears, read: polyurea system with Prepolymer A.
Where [2] appears, read: polyurea system with Prepolymer B.

On to `CCOC(=O)CC(NCCCCNCCCNC(CC(=O)OCC)C(=O)OCC)C(=O)OCC` (stereo not shown) [Curing agent 1, triethyl 4-oxo-3-oxa-7,11,16-triazaoctadecane-6,17,18-tricarboxylate], for which the Adhesive force entry under setting [1] is given as “++” and the Adhesive force entry under setting [2] is “+”. For `CCOC(=O)CC(NCCCCCCNCCCCCCNC(CC(=O)OCC)C(=O)OCC)C(=O)OCC` (stereo not shown) [Curing agent 2, triethyl 4-oxo-3-oxa-7,14,21-triazatricosane-6,22,23-tricarboxylate], in that order: “++” and “+”. As to `CCOC(=O)CC(NCCCNCCCNC(CC(=O)OCC)C(=O)OCC)C(=O)OCC` (stereo not shown) [Curing agent 3, Triethyl 4-oxo-3-oxa-7,11,15-triazaheptadecane-6,16,17-tricarboxylate], the Adhesive force entry reads like this: under setting [1], “++”; under setting [2], “+”. With `CCOC(=O)CC(NCCCC(C)CNC(CC(=O)OCC)C(=O)OCC)C(=O)OCC` (stereo not shown) [Curing agent 6, tetraethyl 2,2′-[(2-methylpentane-1,5-diyl)diimino]dibutanedioate, reference compound], under setting [2], the Adhesive force entry is listed as “+”.

(Values after patent US9421298B2, “Tissue adhesive based on nitrogen-modified aspartates” (Adhesys Medical GmbH, priority 2011, dated 2016).)
